In US8653285B2 (Nippon Zoki Pharmaceutical Co., Ltd., priority 2008, dated 2014):
Counter-ions that a name gives are not always drawn.

Test: Index ID50 (cerebral receptor binding test) divided by ED50 (vascular hyperpermeability test)
Conditions: ID50 of Table 11 divided by ED50 of Table 10

Row | SMILES | ID50 (mg/kg)/ ED50 (mg/kg)
1 | CN(C)CC/C=C1/c2cc(CCC(=O)O)ccc2OCc2sccc21.Cl [Compound 57, (Z)-3-[4-(3-Dimethylaminopropylidene)-4,10-dihydro-9-oxa-1-thiabenzo[f]azulen-6-yl]propionic acid hydrochloride] | >800
2 | CCN(C)CC/C=C1\c2cc(CC(=O)O)ccc2OCc2ccsc21 [Compound 30] | 316.7
3 | O=C(O)Cc1ccc2c(c1)/C(=C\CCN1CCCC1)c1sccc1CO2 [Compound 26, (E)-{4-[3-(Pyrrolidin-1-yl)propylidene]-4,10-dihydro-9-oxa-3-thiabenzo[f]azulen-6-yl}acetic acid] | 518.6
4 | CN(C)CC/C=C1\c2cc(CC(=O)O)ccc2OCc2sccc21 [Compound 29, (E)-[4-(3-Dimethylaminopropylidene)-4,10-dihydro-9-oxa-1-thiabenzo[f]azulen-6-yl]acetic acid] | >237
5 | CNCC/C=C1\c2cc(C(C)(C)C(=O)O)ccc2OCc2ccsc21 [Compound 25, (E)-{2-Methyl-2-[4-(3-methylaminopropylidene)-4,10-dihydro-9-oxa-3-thiabenzo [f]azulen-6-yl]}propionic acid] | >35.1
6 | O=C(O)CCc1ccc2c(c1)/C(=C\CCN1CCCC1)c1ccsc1CO2 [Compound 58, (E)-3-{4-[3-(Pyrrolidin-1-yl)propylidene]-4,10-dihydro-9-oxa-1-thiabenzo[f]azulen-6-yl}propionic acid] | 110.2
7 | CN1CCN(CC/C=C2\c3cc(CC(=O)O)ccc3OCc3ccsc32)CC1 [Compound 50, (E)-{4-[3-(4-Methylpiperadin-1-yl)propylidene]-4,10-dihydro-9-oxa-3-thiabenzo[f]azulen-6-yl}acetic acid] | >59.7
8 | O=C(O)Cc1ccc2c(c1)/C(=C\CCN1CCCCC1)c1sccc1CO2 [Compound 34, (E)-{4-[3-(Piperidin-1-yl)propylidene]-4,10-dihydro-9-oxa-3-thiabenzo[f]azulen-6-yl}acetic Acid] | 116.0
9 | CN(C)CCC=C1c2cc(C(C)(C)C(=O)O)ccc2OCc2ccsc21 [Compound 22, (E,Z)-2-[4-(3-Dimethylaminopropylidene)-4,10-dihydro-9-oxa-3-thiabenzo[f]azulen-6-yl]-2-methylpropionic acid] | 18.7
10 | CN(C)CC/C=C1/c2cc(CC(=O)O)ccc2OCc2ccsc21 [Compound 20, (Z)-[4-(3-Dimethylaminopropylidene)-4,10-dihydro-9-oxa-3-thiabenzo[f]azulen-6-yl]acetic acid] | 242.9
11 | CN(C)CC/C=C1\c2cc(CC(=O)O)ccc2OCc2ccsc21 [Compound 19, (E)-[4-(3-Dimethylaminopropylidene)-4,10-dihydro-9-oxa-3-thiabenzo[f]azulen-6-yl]acetic acid] | 25.3
12 | CN(C)CC/C=C1/c2ccccc2CCc2sc(C(=O)O)cc21 [Compound 16, (Z)-[4-(3-Dimethylaminopropylidene)-9,10-dihydro-4H-1-thiabenzo[f]azulen-2-yl]carboxylic acid] | 153.2
13 | Cl.O=C(O)Cc1ccc2c(c1)/C(=C/CCN1CCCC1)c1sccc1CO2 [Compound 71, (Z)-{4-[3-(Pyrrolidin-1-yl)propylidene]-4,10-dihydro-9-oxa-3-thiabenzo[f]azulen-6-yl}acetic acid hydrochloride] | >96.4
14 | O=C(O)Cc1ccc2c(c1)/C(=C/CCN1CCOCC1)c1sccc1CO2 [Compound 33, (Z)-{4-[3-(Morpholin-4-yl)propylidene]-4,10-dihydro-9-oxa-3-thiabenzo[f]azulen-6-yl}acetic acid] | 70.3
15 | CCOC(=O)C(C)(C)c1cc2c(s1)C(=O)Cc1ccccc1C2=CCCN(C)C [Compound 24, Ethyl (E,Z)-2-[4-(3-dimethylaminopropylidene)-10-oxo-9,10-dihydro-4H-1-thiabenzo[f]azulen-2-yl]-2-methylpropionate hydrochloride] | 174.0
16 | O=C(O)Cc1ccc2c(c1)/C(=C/CCN1CCCCC1)c1sccc1CO2 [Compound 35, (Z)-{4-[3-(Piperidin-1-yl)propylidene]-4,10-dihydro-9-oxa-3-thiabenzo[f]azulen-6-yl}acetic acid] | 657.0
17 | O=C(O)Cc1ccc2c(c1)/C(=C/CCN1CCCC1)c1sccc1CO2 [Compound 27, (Z)-{4-[3-(Pyrrolidin-1-yl)propylidene]-4,10-dihydro-9-oxa-3-thiabenzo[f]azulen-6-yl}acetic acid] | >885
18 | CN(C)CC/C=C1/c2ccccc2CCc2sc(CC(=O)O)cc21.Cl [Compound 18, (Z)-[4-(3-Dimethylaminopropylidene)-9,10-dihydro-4H-1-thiabenzo[f]azulen-2-yl]acetic acid hydrochloride] | 33.3
19 | O=C(O)CCc1ccc2c(c1)/C(=C/CCN1CCCC1)c1ccsc1CO2 [Compound 59, (Z)-3-{4-[3-(Pyrrolidin-1-yl)propylidene]-4,10-dihydro-9-oxa-1-thiabenzo[f]azulen-6-yl}propionic acid] | >666.7
20 | Cl.O=C(O)Cc1ccc2c(c1)/C(=C\CCN1CCCC1)c1sccc1CO2 [Compound 70, (E)-{4-[3-(Pyrrolidin-1-yl)propylidene]-4,10-dihydro-9-oxa-3-thiabenzo[f]azulen-6-yl}acetic acid hydrochloride] | 122.4
21 | CN(C)CC/C=C1/c2cc(CC(=O)O)ccc2OCc2sccc21 [Compound 28, (Z)-[4-(3-Dimethylaminopropylidene)-4,10-dihydro-9-oxa-1-thiabenzo[f]azulen-6-yl]acetic acid] | >58.5
22 | O=C(O)Cc1ccc2c(c1)/C(=C/CCNCc1ccccc1)c1sccc1CO2 [Compound 43, (Z)-[4-(3-Benzylaminopropylidene)-4,10-dihydro-9-oxa-3-thiabenzo[f]azulen-6-yl]acetic acid] | >61.1
